Patent US20230391752A1, “PYRROLIDINE-3-CARBOXAMIDE DERIVATIVES AND RELATED USES” (Chulalongkorn University, priority 2020, published 2023)
Some entries share one result that the patent states for a list of compounds.

tested on: HBV; assay: Anti-HBV activity in the presence of human serum (2% vs 40% HS) in HepG2.2.15 cells; format: cell-based, Hepatitis B virus; conditions: 6 days, HBV DNA inhibition

| Compound | Fold change in EC50 (ratio of EC50 in 40% HS to that in 2% HS) [folds] |
| --- | --- |
| Cc1ncnc(C)c1-c1ccc(C(=O)N2CC[C@H](C(=O)Nc3ccc(F)c(Cl)c3)C2)[nH]1 [Example 99, (S)—N-(3-chloro-4-fluorophenyl)-1-(5-(4,6-dimethylpyrimidin-5-yl)-1H-pyrrole-2-carbonyl) pyrrolidine-3-carboxamide] | ≤ 6 |
| C[C@H]1[C@@H](C(=O)Nc2ccc(F)c(F)c2)CCN1C(=O)c1ccc(-c2ccnnc2)[nH]1 [Example 110, (2S,3S)—N-(3,4-difluorophenyl)-2-methyl-1-(5-(pyridazin-4-yl)-1H-pyrrole-2-carbonyl) pyrrolidine-3-carboxamide] | ≤ 6 |
| C[C@H]1[C@@H](C(=O)Nc2cc(F)c(F)c(F)c2)CCN1C(=O)c1ccc(-c2ccnnc2)[nH]1 [Example 83, (2S,3S)-2-methyl-1-(5-(pyridazin-4-yl)-1H-pyrrole-2-carbonyl)-N-(3,4,5-trifluorophenyl)pyrrolidine-3-carboxamide] | ≤ 6 |
| Cc1ncnc(C)c1-c1ccc(C(=O)N2CC[C@H](C(=O)Nc3cc(F)c(F)c(F)c3)C2)[nH]1 [Example 85, (S)-1-(5-(4,6-dimethylpyrimidin-5-yl)-1H-pyrrole-2-carbonyl)-N-(3,4,5-trifluorophenyl) pyrrolidine-3-carboxamide] | ≤ 6 |
| C[C@H]1[C@@H](C(=O)Nc2cc(F)c(F)c(F)c2)CCN1C(=O)c1[nH]c2ccccc2c1Cl [Example 42, (2S,3S)-1-(3-chloro-1H-indole-2-carbonyl)-2-methyl-N-(3,4,5-trifluorophenyl)pyrrolidine-3-carboxamide] | ≤ 6 |
| Cc1cc(NC(=O)[C@H]2CCN(C(=O)c3ccc(-c4c(C)ncnc4C)[nH]3)[C@H]2C)ccc1F [Example 149, (2S,3S)-1-(5-(4,6-dimethylpyrimidin-5-yl)-1H-pyrrole-2-carbonyl)-N-(4-fluoro-3-methylphenyl)-2-methylpyrrolidine-3-carboxamide] | ≤ 6 |
